The values that follow come from paper PMC11807764.

Chains of the proteins cited; added tags and fusions are not shown. Residues count along the entry.
UniProt P13473, residues 29-410: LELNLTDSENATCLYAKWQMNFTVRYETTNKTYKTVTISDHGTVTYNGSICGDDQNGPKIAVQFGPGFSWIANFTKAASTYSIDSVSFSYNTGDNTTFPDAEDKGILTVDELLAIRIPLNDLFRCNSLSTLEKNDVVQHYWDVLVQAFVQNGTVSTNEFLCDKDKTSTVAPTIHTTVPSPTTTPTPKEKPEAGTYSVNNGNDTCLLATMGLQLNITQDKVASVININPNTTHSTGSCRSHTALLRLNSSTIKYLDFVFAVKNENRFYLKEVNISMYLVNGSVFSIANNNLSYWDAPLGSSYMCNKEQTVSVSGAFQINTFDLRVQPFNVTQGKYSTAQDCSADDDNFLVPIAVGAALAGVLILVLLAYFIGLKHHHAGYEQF

In the assay the target is lysosome-associated membrane protein 2A (LAMP2A) (UniProt P13473). The experiment in a line: co-IP; lysate of LAMP2A-overexpressing cells (HepG2 treated with PA 300 µM for 12 h) in IP lysis buffer with protease inhibitors; anti-LAMP2A antibody overnight, Protein A/G magnetic beads 4 h at 4°C, five washes with lysis buffer.

These are yes or no findings as the source states them, for the method shown. In cells and extracts the contact can be indirect. Some binding calls cover weakened binding; strength is not graded here.

B1: 3-hydroxy-3-methylglutaryl coenzyme A (HMGCR) (enzyme, UniProt P04035 1-888)
chain: MLSRLFRMHGLFVASHPWEVIVGTVTLTICMMSMNMFTGNNKICGWNYECPKFEEDVLSSDIIILTITRCIAILYIYFQFQNLRQLGSKYILGIAGLFTIFSSFVFSTVVIHFLDKELTGLNEALPFFLLLIDLSRASTLAKFALSSNSQDEVRENIARGMAILGPTFTLDALVECLVIGVGTMSGVRQLEIMCCFGCMSVLANYFVFMTFFPACVSLVLELSRESREGRPIWQLSHFARVLEEEENKPNPVTQRVKMIMSLGLVLVHAHSRWIADPSPQNSTADTSKVSLGLDENVSKRIEPSVSLWQFYLSKMISMDIEQVITLSLALLLAVKYIFFEQTETESTLSLKNPITSPVVTQKKVPDNCCRREPMLVRNNQKCDSVEEETGINRERKVEVIKPLVAETDTPNRATFVVGNSSLLDTSSVLVTQEPEIELPREPRPNEECLQILGNAEKGAKFLSDAEIIQLVNAKHIPAYKLETLMETHERGVSIRRQLLSKKLSEPSSLQYLPYRDYNYSLVMGACCENVIGYMPIPVGVAGPLCLDEKEFQVPMATTEGCLVASTNRGCRAIGLGGGASSRVLADGMTRGPVVRLPRACDSAEVKAWLETSEGFAVIKEAFDSTSRFARLQKLHTSIAGRNLYIRFQSRSGDAMGMNMISKGTEKALSKLHEYFPEMQILAVSGNYCTDKKPAAINWIEGRGKSVVCEAVIPAKVVREVLKTTTEAMIEVNINKNLVGSAMAGSIGGYNAHAANIVTAIYIACGQDAAQNVGSSNCITLMEASGPTNEDLYISCTMPSIEIGTVGGGTNLLPQQACLQMLGVQGACKDNPGENARQLARIVCGTVMAGELSLMAALAAGHLVKSHMIHNRSKINLQDLQGACTKKTA
For the molecule B1, the binding result is reported as “binds”.
